# Laboratory results reported in article PMC8384837.
# The list shows a part of the results. At the low end of the ranking the order means little.
# Molecular target: T1, PUM1 PUF domain R2-VFQ R3-THE R4-TFR N899V + Y900F + C935T + R936H + Q939E + N971T + H972F + Q975R (UniProt Q14671)
# T1 sequence: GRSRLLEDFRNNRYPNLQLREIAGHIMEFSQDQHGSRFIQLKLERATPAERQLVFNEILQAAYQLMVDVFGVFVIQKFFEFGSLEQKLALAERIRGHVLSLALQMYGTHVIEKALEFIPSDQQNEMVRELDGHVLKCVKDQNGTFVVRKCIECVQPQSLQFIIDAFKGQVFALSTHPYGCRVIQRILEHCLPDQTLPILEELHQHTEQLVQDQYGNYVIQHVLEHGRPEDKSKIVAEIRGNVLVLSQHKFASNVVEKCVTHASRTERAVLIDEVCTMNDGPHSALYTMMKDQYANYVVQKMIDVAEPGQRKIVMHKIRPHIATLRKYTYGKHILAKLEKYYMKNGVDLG
# Settings: yeast three-hybrid, YBZ-1, SC-Leu-His + 0.5 mM 3-AT, 4 days
row,Sequence,binding signal (log2 enrichment (interaction score))
1,GGCUAGAACUAGUGGAUCCCCCGGCGCCCGGCGGCUCGAGCCCGGGUAAGUGUCAGUCGUCUGCAUGCCGCCGGGCGCCAUGCCUGCAGGUCGACUCUAGAAAACAUG,-5.8
2,GGCUAGAACUAGUGGAUCCCCCGGCGCCCGGCGGCUCGAGCCCGGGUAAGGUCGCACAGUCUGCAUGCCGCCGGGCGCCAUGCCUGCAGGUCGACUCUAGAAAACAUG,< -5.27
3,GGCUAGAACUAGUGGAUCCCCCGGCGCCCGGCGGCUCGAGCCCGGGUAAGUUACAGUGGUCUGCAUGCCGCCGGGCGCCAUGCCUGCAGGUCGACUCUAGAAAACAUG,-5.2
4,GGCUAGAACUAGUGGAUCCCCCGGCGCCCGGCGGCUCGAGCCCGGGUAAGUUGAAAUCGUCUGCAUGCCGCCGGGCGCCAUGCCUGCAGGUCGACUCUAGAAAACAUG,-5.48
5,GGCUAGAACUAGUGGAUCCCCCGGCGCCCGGCGGCUCGAGCCCGGGUAAGGUCAGAACGUCUGCAUGCCGCCGGGCGCCAUGCCUGCAGGUCGACUCUAGAAAACAUG,-5.29
6,GGCUAGAACUAGUGGAUCCCCCGGCGCCCGGCGGCUCGAGCCCGGGUAAGUUAAGGAGGUCUGCAUGCCGCCGGGCGCCAUGCCUGCAGGUCGACUCUAGAAAACAUG,-6.75
7,GGCUAGAACUAGUGGAUCCCCCGGCGCCCGGCGGCUCGAGCCCGGGUAAGUUUAUAGCGUCUGCAUGCCGCCGGGCGCCAUGCCUGCAGGUCGACUCUAGAAAACAUG,-5.18
8,GGCUAGAACUAGUGGAUCCCCCGGCGCCCGGCGGCUCGAGCCCGGGUAAGUUUGAGAAGUCUGCAUGCCGCCGGGCGCCAUGCCUGCAGGUCGACUCUAGAAAACAUG,-4.8
9,GGCUAGAACUAGUGGAUCCCCCGGCGCCCGGCGGCUCGAGCCCGGGUAAGUUCAAUAAGUCUGCAUGCCGCCGGGCGCCAUGCCUGCAGGUCGACUCUAGAAAACAUG,-5.68
10,GGCUAGAACUAGUGGAUCCCCCGGCGCCCGGCGGCUCGAGCCCGGGUAAGUGUACGUCGUCUGCAUGCCGCCGGGCGCCAUGCCUGCAGGUCGACUCUAGAAAACAUG,-4.54
11,GGCUAGAACUAGUGGAUCCCCCGGCGCCCGGCGGCUCGAGCCCGGGUAAGUGCUCAGGGUCUGCAUGCCGCCGGGCGCCAUGCCUGCAGGUCGACUCUAGAAAACAUG,-5.87
12,GGCUAGAACUAGUGGAUCCCCCGGCGCCCGGCGGCUCGAGCCCGGGUAAGUUGGAGACGUCUGCAUGCCGCCGGGCGCCAUGCCUGCAGGUCGACUCUAGAAAACAUG,-5.88
13,GGCUAGAACUAGUGGAUCCCCCGGCGCCCGGCGGCUCGAGCCCGGGUAAGUUUAUAAUGUCUGCAUGCCGCCGGGCGCCAUGCCUGCAGGUCGACUCUAGAAAACAUG,-4.45
14,GGCUAGAACUAGUGGAUCCCCCGGCGCCCGGCGGCUCGAGCCCGGGUAAGUGUAAAAAGUCUGCAUGCCGCCGGGCGCCAUGCCUGCAGGUCGACUCUAGAAAACAUG,-6.1
15,GGCUAGAACUAGUGGAUCCCCCGGCGCCCGGCGGCUCGAGCCCGGGUAAGGUUCGAUAGUCUGCAUGCCGCCGGGCGCCAUGCCUGCAGGUCGACUCUAGAAAACAUG,-4.53
16,GGCUAGAACUAGUGGAUCCCCCGGCGCCCGGCGGCUCGAGCCCGGGUAAGUUUAGCUCGUCUGCAUGCCGCCGGGCGCCAUGCCUGCAGGUCGACUCUAGAAAACAUG,-4.9
17,GGCUAGAACUAGUGGAUCCCCCGGCGCCCGGCGGCUCGAGCCCGGGUAAGGGGAAUUUGUCUGCAUGCCGCCGGGCGCCAUGCCUGCAGGUCGACUCUAGAAAACAUG,-6.12
18,GGCUAGAACUAGUGGAUCCCCCGGCGCCCGGCGGCUCGAGCCCGGGUAAGAUUGAGUCGUCUGCAUGCCGCCGGGCGCCAUGCCUGCAGGUCGACUCUAGAAAACAUG,-5.88
19,GGCUAGAACUAGUGGAUCCCCCGGCGCCCGGCGGCUCGAGCCCGGGUAAGUAGGAGCUGUCUGCAUGCCGCCGGGCGCCAUGCCUGCAGGUCGACUCUAGAAAACAUG,-5.33
20,GGCUAGAACUAGUGGAUCCCCCGGCGCCCGGCGGCUCGAGCCCGGGUAAGUUUUCUGAGUCUGCAUGCCGCCGGGCGCCAUGCCUGCAGGUCGACUCUAGAAAACAUG,-5.97
21,GGCUAGAACUAGUGGAUCCCCCGGCGCCCGGCGGCUCGAGCCCGGGUAAGUUGACACCGUCUGCAUGCCGCCGGGCGCCAUGCCUGCAGGUCGACUCUAGAAAACAUG,-3.91
22,GGCUAGAACUAGUGGAUCCCCCGGCGCCCGGCGGCUCGAGCCCGGGUAAGAUGACGUAGUCUGCAUGCCGCCGGGCGCCAUGCCUGCAGGUCGACUCUAGAAAACAUG,-5.94

# Look-ups from the results shown:
# GGCUAGAACUAGUGGAUCCCCCGGCGCCCGGCGGCUCGAGCCCGGGUAAGUUGGAGACGUCUGCAUGCCGCCGGGCGCCAUGCCUGCAGGUCGACUCUAGAAAACAUG – binding signal (log2 enrichment (interaction score)): -5.88
# GGCUAGAACUAGUGGAUCCCCCGGCGCCCGGCGGCUCGAGCCCGGGUAAGUUCAAUAAGUCUGCAUGCCGCCGGGCGCCAUGCCUGCAGGUCGACUCUAGAAAACAUG – binding signal (log2 enrichment (interaction score)): -5.68
